Some of the results follow.

The nature of this test: dynein cargo transport inhibitors, GR-EGFP translocation, confirmation, imaging, high-content imaging, GR-EGFP cells (AID 463116). Conditions: 3617.4 GR-EGFP nuclear translocation imaging, dexamethasone-induced; measured here: cell count per field; at 20 µM.
`O=[N+]([O-])c1cc([N+](=O)[O-])c(-n2nnc3ccccc32)c([N+](=O)[O-])c1`: the z-score was found to be 0.398.

Turning to `Cc1c2non([O-])c-2c(C)[n+](=O)[n+]1[O-]`, the z-score was -3.36.

In turn, `O=c1c2cc([N+](=O)[O-])ccc2[nH]c2c([N+](=O)[O-])cc([N+](=O)[O-])cc12` displayed a z-score of 0.15.

The values are drawn from PubChem BioAssay AID463116 (University of Pittsburgh Molecular Library Screening Center, 2010).
